{"source": "PubChem BioAssay AID1508597, Cure First | 2020", "test": "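Survival screen with siRNA in ovarian cancer cells derived from patients, with or without rucaparib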 (primary screen)", "cell system": "human ovarian carcinoma lines grown from tumours: OCI-P5x (papillary serous) and OCI-C5x (clear cell)", "reagents": "siRNA pool against human genes, 1.25 pmol siRNA per well", "timing": "72 h or 96 h, depending on the cell culture", "conditions": "rucaparib 20 µM (about IC30) or vehicle, present until read-out", "rucaparib or vehicle": "Vehicle", "cell line": "OCI-C5x (clear cell)", "read-out": "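ATP luminescence measured at 72 or 96 h according to the culture, then normalised and expressed as percent viability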", "direction": "viability, normalised: higher = more viable cells remaining", "rule for the call": "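Active when normalised viability falls below 80 percent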", "calls": "active = viability under 80%; inactive = viability 80% or more", "note": "Shown is a random part of the about 2,100 reagents, under one of the conditions tested. 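Calls flag viability under 80% in either arm, not effects specific to rucaparib; the reference for percent is not stated.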 Not stated in the record: the 100% reference."}
{"gene": "AKT1 (AKT serine/threonine kinase 1)", "PubChem SID": "SID405527643", "technical replicate": "1", "viability, normalised (%)": 69.1, "Outcome": "active"}
{"gene": "AKT1 (AKT serine/threonine kinase 1)", "PubChem SID": "SID405527643", "technical replicate": "2", "viability, normalised (%)": 66.1, "Outcome": "active"}
{"gene": "AKT1 (AKT serine/threonine kinase 1)", "PubChem SID": "SID405527643", "technical replicate": "3", "viability, normalised (%)": 67, "Outcome": "active"}
{"gene": "RNF2 (ring finger protein 2)", "PubChem SID": "SID405527253", "technical replicate": "1", "viability, normalised (%)": 47.5, "Outcome": "active"}
{"gene": "RNF2 (ring finger protein 2)", "PubChem SID": "SID405527253", "technical replicate": "2", "viability, normalised (%)": 36.4, "Outcome": "active"}
{"gene": "RNF2 (ring finger protein 2)", "PubChem SID": "SID405527253", "technical replicate": "3", "viability, normalised (%)": 56.9, "Outcome": "active"}
{"gene": "SETD1B (SET domain containing 1B, histone lysine methyltransferase)", "PubChem SID": "SID405527280", "technical replicate": "1", "viability, normalised (%)": 42.5, "Outcome": "active"}
{"gene": "SETD1B (SET domain containing 1B, histone lysine methyltransferase)", "PubChem SID": "SID405527280", "technical replicate": "2", "viability, normalised (%)": 30.5, "Outcome": "active"}
{"gene": "SETD1B (SET domain containing 1B, histone lysine methyltransferase)", "PubChem SID": "SID405527280", "technical replicate": "3", "viability, normalised (%)": 40.4, "Outcome": "active"}
{"gene": "NRCAM (neuronal cell adhesion molecule)", "PubChem SID": "SID405527090", "technical replicate": "1", "viability, normalised (%)": 28.5, "Outcome": "active"}
{"gene": "NRCAM (neuronal cell adhesion molecule)", "PubChem SID": "SID405527090", "technical replicate": "2", "viability, normalised (%)": 31.1, "Outcome": "active"}
{"gene": "NRCAM (neuronal cell adhesion molecule)", "PubChem SID": "SID405527090", "technical replicate": "3", "viability, normalised (%)": 36.7, "Outcome": "active"}
{"gene": "INTS3 (integrator complex subunit 3)", "PubChem SID": "SID405528337", "technical replicate": "1", "viability, normalised (%)": 96.8, "Outcome": "inactive"}
{"gene": "INTS3 (integrator complex subunit 3)", "PubChem SID": "SID405528337", "technical replicate": "2", "viability, normalised (%)": 60.8, "Outcome": "active"}
{"gene": "INTS3 (integrator complex subunit 3)", "PubChem SID": "SID405528337", "technical replicate": "3", "viability, normalised (%)": 52.2, "Outcome": "active"}
{"gene": "GON4L (gon-4 like)", "PubChem SID": "SID405526825", "technical replicate": "1", "viability, normalised (%)": 34.7, "Outcome": "active"}
{"gene": "GON4L (gon-4 like)", "PubChem SID": "SID405526825", "technical replicate": "2", "viability, normalised (%)": 38.6, "Outcome": "active"}
{"gene": "GON4L (gon-4 like)", "PubChem SID": "SID405526825", "technical replicate": "3", "viability, normalised (%)": 44.9, "Outcome": "active"}
{"gene": "SGK3 (serum/glucocorticoid regulated kinase family member 3)", "PubChem SID": "SID405527736", "technical replicate": "1", "viability, normalised (%)": 54.4, "Outcome": "active"}
{"gene": "SGK3 (serum/glucocorticoid regulated kinase family member 3)", "PubChem SID": "SID405527736", "technical replicate": "2", "viability, normalised (%)": 49.2, "Outcome": "active"}
{"gene": "SGK3 (serum/glucocorticoid regulated kinase family member 3)", "PubChem SID": "SID405527736", "technical replicate": "3", "viability, normalised (%)": 48.2, "Outcome": "active"}

Look-ups from above.
For “viability, normalised (%)”, NRCAM (neuronal cell adhesion molecule) [SID405527090], technical replicate 3 has 36.7
GON4L (gon-4 like) [SID405526825], technical replicate 1, viability, normalised (%): 34.7
RNF2 (ring finger protein 2) [SID405527253], technical replicate 2, Outcome = active
